Assay results from article PMC7076219.
No constants are given. Whether binding was seen depends on the method and setting. Some results given as binding are weak or reduced against the parent protein; the word gives no strength. Sequences can lack the tags named with a protein. Blank lines part the entries; values can stand above or below the binder they belong to.

Biological target: T1, PSGL-1 (P-selectin glycoprotein ligand-1) (human (endogenous in KG1a)) (UniProt Q14242)
T1 sequence: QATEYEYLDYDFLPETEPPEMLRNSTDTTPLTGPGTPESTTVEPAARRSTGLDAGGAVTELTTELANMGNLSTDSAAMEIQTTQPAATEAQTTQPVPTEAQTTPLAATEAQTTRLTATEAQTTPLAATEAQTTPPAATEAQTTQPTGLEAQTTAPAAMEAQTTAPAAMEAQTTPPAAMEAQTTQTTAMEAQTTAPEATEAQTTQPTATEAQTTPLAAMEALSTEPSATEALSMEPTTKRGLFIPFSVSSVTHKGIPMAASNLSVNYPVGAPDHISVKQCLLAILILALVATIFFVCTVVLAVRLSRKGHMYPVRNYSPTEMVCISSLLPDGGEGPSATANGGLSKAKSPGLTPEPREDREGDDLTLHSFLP
Experiment: far-Western; PSGL-1 and CD44 immunoprecipitated from KG1a lysate, reduced SDS-PAGE, PVDF; blots stained with 1 ug/ml E-selectin protein in TBST with 2 mM CaCl2; detected by Strep-tag II mAb or, for the dimeric proteins, anti-human IgG; only the binder purified

- binding: binds
B1: E-selectin-IgG/Fc chimera produced from NS0 cells (R&D Systems) (Fc fusion, UniProt Q00690 22-557)
chain: WYYNASSELMTYDEASAYCQRDYTHLVAIQNKEEINYLNSNLKHSPSYYWIGIRKVNNVWIWVGTGKPLTEEAQNWAPGEPNNKQRNEDCVEIYIQRTKDSGMWNDERCNKKKLALCYTASCTNASCSGHGECIETINSYTCKCHPGFLGPNCEQAVTCKPQEHPDYGSLNCSHPFGPFSYNSSCSFGCKRGYLPSSMETTVRCTSSGEWSAPAPACHVVECEALTHPAHGIRKCSSNPGSYPWNTTCTFDCVEGYRRVGAQNLQCTSSGIWDNETPSCKAVTCDAIPQPQNGFVSCSHSTAGELAFKSSCNFTCEQSFTLQGPAQVECSAQGQWTPQIPVCKAVQCEALSAPQQGNMKCLPSASGPFQNGSSCEFSCEEGFELKGSRRLQCGPRGEWDSKKPTCSAVKCDDVPRPQNGVMECAHATTGEFTYKSSCAFQCNEGFSLHGSAQLECTSQGKWTQEVPSCQVVQCPSLDVPGKMNMSCSGTAVFGTVCEFTCPDDWTLNGSAVLTCGATGRWSGMPPTCEAPVSPTRP

- binding: binds
B2: E-S6 (monomeric full-length extracellular mouse E-selectin) (domain or fragment, UniProt Q00690 22-557)
chain: B1 chain
